Results deposited as PubChem BioAssay AID1224826 (NIAID, 2016).

Test: 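Knock-downs that raise or lower Tnf reporter signal after endotoxin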 (primary screen)
System: RAW264.7 G9 macrophages from mouse bearing reporters for p65 (GFP) and the Tnf promoter (mCherry)
Reagents: siRNA pool against mouse genes, 100 nM
Duration: 16 h of LPS stimulation, after 2 days of siRNA transfection
Challenge: bacterial lipopolysaccharide (Salmonella minnesota R595), 10 ng/ml
Measured: 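Nuclear mCherry signal of the Tnf promoter reporter measured by imaging after background removal, scaled to each plate median and turned into robust z-scores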
Reading the numbers: Tnf reporter robust z-score: higher = stronger Tnf promoter reporter signal after LPS
Hit rule: 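Called active when robust z-score is at most -1.3, matching the median of the Tlr4 knock-down control, or over 3; control wells and wells with under 50 cells never active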
Calls: active = Tnf reporter clearly lowered or raised; inactive = no clear change in Tnf reporter
The deposit covers about 17,000 reagents; below is an unselected part. About 1,110 of all reagents (6.6%) were called active. 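Active means lowered or raised reporter signal; replicate intensities are raw and not normalised per plate.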 Entries without a mark were called inactive. Reagents against one gene are numbered here. Further read-outs or replicates are left out here.

After knock-down of Gpr37l1 the results were Tnf reporter robust z-score -0.33; fewer than 50 cells in well enough cells in well.
Against Noxa1, the values are Tnf reporter robust z-score -1.43 (active); fewer than 50 cells in well enough cells in well.
Mpnd showed Tnf reporter robust z-score 0.65; fewer than 50 cells in well enough cells in well.
Knock-down of Ppat came out at: Tnf reporter robust z-score 0.06; fewer than 50 cells in well enough cells in well.
Cwc22 gave Tnf reporter robust z-score -0.6; fewer than 50 cells in well enough cells in well.
After knock-down of H1f6, the screen gave Tnf reporter robust z-score 0.52; fewer than 50 cells in well enough cells in well.
After knock-down of Ccdc69, the record shows Tnf reporter robust z-score -0.82; fewer than 50 cells in well enough cells in well.
For Ccng1, the values are Tnf reporter robust z-score 0.07; fewer than 50 cells in well enough cells in well.
With knock-down of Nlrp3 the results were Tnf reporter robust z-score -0.46; fewer than 50 cells in well enough cells in well.

Part of the list above in another layout:
{"gene symbol":"Ppat","pool no.":1,"Tnf reporter robust z-score":0.06,"fewer than 50 cells in well":"enough cells in well"}
{"gene symbol":"Cwc22","pool no.":1,"Tnf reporter robust z-score":-0.6,"fewer than 50 cells in well":"enough cells in well"}

The results go on.
Against BC061195 the deposit lists Tnf reporter robust z-score -0.27; fewer than 50 cells in well enough cells in well.
With knock-down of Asb7, the screen gave Tnf reporter robust z-score -1.41 (active); fewer than 50 cells in well enough cells in well.
Depletion of Ttc41 resulted in: Tnf reporter robust z-score -0.46; fewer than 50 cells in well enough cells in well.
Chst8 showed Tnf reporter robust z-score 3.37 (active); fewer than 50 cells in well enough cells in well.
With knock-down of Taf15 the results were Tnf reporter robust z-score -0.21; fewer than 50 cells in well enough cells in well.
Knock-down of Rpl26 gave: fewer than 50 cells in well fewer than 50 cells per well; well left out of calls.
Dpcd gave Tnf reporter robust z-score 0.68; fewer than 50 cells in well enough cells in well.
Snn showed Tnf reporter robust z-score -0.95; fewer than 50 cells in well enough cells in well.
Knock-down of Cit #1 resulted in: Tnf reporter robust z-score 1.42; fewer than 50 cells in well enough cells in well.
Cit #2 gave fewer than 50 cells in well fewer than 50 cells per well; well left out of calls.
Against Zfp472, the entry reads Tnf reporter robust z-score 0.25; fewer than 50 cells in well enough cells in well.
With knock-down of Phb1 the results were Tnf reporter robust z-score -1; fewer than 50 cells in well enough cells in well.
